Experiment: Aqueous solubility tests by solution 1H NMR

COc1ccc2cc(C(C)C(=O)O)ccc2c1.NCCc1ccc(O)cc1 (centres unmarked) [NAP-TYA]
Increase in aqueous solubility of adduct versus pure API (aqueous solution, adduct versus pure API): 35 fold | Aqueous solubility (deionized H2O, stirred 3 days, filtered, 1H NMR at 298 K with TSP internal standard, concentration of the drug in solution, average of three measurements ± standard deviation): 735 ± 75 µg/mL
